This note sets out measurements from publication PMC2518271.

By UniProt entry, the sequences of proteins in these tests, tags left out.
UniProt P46821: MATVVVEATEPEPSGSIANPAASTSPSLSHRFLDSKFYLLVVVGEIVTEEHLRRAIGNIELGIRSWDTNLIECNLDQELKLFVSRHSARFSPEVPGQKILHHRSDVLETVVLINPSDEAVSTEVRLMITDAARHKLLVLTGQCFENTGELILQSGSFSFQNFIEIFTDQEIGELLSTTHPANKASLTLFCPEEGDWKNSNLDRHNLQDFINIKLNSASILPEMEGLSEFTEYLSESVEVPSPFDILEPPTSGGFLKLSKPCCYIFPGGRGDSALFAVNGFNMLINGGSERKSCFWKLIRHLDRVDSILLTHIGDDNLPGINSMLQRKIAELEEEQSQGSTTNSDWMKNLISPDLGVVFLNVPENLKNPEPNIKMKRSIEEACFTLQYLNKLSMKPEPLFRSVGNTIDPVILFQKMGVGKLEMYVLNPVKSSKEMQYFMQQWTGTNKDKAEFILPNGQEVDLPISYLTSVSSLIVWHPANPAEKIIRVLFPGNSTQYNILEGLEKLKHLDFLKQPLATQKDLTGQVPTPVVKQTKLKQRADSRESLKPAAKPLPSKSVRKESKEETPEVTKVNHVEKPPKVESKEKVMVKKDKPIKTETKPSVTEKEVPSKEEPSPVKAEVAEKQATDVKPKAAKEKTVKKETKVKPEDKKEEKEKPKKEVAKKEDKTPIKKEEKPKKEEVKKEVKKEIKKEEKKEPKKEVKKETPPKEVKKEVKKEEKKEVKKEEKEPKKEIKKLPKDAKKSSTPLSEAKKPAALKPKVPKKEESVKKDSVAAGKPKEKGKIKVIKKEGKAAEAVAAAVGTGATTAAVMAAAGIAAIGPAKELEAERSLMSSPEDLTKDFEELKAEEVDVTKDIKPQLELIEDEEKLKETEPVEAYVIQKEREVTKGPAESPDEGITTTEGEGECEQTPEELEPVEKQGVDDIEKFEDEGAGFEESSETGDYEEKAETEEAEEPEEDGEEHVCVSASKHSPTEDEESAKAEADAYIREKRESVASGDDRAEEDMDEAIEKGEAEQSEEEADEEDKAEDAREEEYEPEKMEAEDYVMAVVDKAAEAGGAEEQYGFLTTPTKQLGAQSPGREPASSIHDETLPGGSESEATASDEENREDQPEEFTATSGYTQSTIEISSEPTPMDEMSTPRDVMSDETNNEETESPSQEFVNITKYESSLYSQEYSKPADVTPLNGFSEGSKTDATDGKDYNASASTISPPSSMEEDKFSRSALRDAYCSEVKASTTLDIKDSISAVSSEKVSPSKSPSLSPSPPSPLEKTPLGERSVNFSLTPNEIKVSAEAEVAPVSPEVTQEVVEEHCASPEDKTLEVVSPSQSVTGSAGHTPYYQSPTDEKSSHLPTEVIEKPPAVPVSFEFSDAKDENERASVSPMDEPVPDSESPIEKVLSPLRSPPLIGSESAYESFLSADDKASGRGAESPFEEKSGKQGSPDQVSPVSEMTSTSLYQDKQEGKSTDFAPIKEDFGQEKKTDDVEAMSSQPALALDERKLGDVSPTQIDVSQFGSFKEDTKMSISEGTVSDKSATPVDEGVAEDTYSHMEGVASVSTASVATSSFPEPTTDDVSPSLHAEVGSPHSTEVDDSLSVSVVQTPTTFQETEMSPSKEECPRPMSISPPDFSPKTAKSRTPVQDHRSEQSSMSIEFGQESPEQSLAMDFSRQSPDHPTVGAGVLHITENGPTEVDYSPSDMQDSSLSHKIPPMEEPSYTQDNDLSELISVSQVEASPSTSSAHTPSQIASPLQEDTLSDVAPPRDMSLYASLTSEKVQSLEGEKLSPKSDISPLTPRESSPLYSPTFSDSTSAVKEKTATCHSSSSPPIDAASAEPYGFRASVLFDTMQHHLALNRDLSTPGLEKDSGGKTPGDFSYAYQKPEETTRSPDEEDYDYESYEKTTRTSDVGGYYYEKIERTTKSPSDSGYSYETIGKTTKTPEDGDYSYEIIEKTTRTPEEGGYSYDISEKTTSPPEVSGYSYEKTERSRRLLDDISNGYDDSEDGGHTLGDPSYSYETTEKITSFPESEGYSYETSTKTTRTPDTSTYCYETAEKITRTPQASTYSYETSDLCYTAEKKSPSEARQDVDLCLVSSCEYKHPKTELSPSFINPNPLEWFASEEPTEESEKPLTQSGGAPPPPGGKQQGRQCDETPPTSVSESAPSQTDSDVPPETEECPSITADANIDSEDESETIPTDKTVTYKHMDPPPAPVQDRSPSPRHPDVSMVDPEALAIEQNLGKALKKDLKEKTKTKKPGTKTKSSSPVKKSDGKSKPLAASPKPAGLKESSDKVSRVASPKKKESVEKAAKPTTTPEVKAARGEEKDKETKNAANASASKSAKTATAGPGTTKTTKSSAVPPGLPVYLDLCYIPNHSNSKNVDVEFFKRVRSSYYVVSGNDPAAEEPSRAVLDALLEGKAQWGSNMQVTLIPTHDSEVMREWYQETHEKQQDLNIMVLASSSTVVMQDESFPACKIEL

Experiment [1] deals with T1, FLAG-tagged NORE1A effector domain (amino acids 191–363) (UniProt Q8WWW0).
T1 sequence: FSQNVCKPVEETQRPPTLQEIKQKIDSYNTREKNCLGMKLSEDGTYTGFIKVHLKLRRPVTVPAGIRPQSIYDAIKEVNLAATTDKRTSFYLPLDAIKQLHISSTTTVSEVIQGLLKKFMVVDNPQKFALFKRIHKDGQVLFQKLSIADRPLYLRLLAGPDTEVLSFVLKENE
As to the kind of experiment: affinity purification with mass spectrometry; FLAG-tagged full-length NORE1A or effector domain expressed in HEK293 cells; NORE1A-bound proteins examined by mass spectrometry.

For experiment [2], the target named is T2, FLAG-tagged full-length NORE1A (UniProt Q8WWW0).
T2 sequence: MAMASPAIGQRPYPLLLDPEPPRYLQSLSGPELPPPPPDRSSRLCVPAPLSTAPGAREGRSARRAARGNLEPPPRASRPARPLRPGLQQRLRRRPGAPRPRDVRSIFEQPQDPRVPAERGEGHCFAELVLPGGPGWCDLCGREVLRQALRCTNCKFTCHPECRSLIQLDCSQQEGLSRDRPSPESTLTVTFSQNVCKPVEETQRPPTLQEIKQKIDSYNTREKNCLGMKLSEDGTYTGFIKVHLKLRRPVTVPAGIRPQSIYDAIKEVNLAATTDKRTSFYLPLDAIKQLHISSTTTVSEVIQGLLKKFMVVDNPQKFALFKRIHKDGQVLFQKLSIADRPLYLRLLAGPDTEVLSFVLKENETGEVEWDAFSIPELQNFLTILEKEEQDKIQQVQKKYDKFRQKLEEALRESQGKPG
The experiment is described as above.

Results are given in words; binding and its absence hold for the method and conditions named. Binding seen in cells or lysates may run through a third protein. These calls come from enrichment with a bait or labelling near it, and not all partners need be listed. Sequences can lack the tags named with a protein.

As to “Microtubule-Associated Protein 1B (MAP1B), endogenous (from UniProt P46821 1-2468)”, the binding entry in experiment [1] and in experiment [2] was “binds” throughout.
